Laboratory results taken from patent US20060051359A1.
Results are given in words; binding and its absence hold for the method and conditions named. Some results given as binding are weak or reduced against the parent protein; the word gives no strength.

Key:
8H9 antigen (human) [1] = target: T1, 8H9 antigen (human) (UniProt Q5ZPR3); assay: 8H9 reactivity by FACS on LAN-1 cells
T1 sequence (looked up): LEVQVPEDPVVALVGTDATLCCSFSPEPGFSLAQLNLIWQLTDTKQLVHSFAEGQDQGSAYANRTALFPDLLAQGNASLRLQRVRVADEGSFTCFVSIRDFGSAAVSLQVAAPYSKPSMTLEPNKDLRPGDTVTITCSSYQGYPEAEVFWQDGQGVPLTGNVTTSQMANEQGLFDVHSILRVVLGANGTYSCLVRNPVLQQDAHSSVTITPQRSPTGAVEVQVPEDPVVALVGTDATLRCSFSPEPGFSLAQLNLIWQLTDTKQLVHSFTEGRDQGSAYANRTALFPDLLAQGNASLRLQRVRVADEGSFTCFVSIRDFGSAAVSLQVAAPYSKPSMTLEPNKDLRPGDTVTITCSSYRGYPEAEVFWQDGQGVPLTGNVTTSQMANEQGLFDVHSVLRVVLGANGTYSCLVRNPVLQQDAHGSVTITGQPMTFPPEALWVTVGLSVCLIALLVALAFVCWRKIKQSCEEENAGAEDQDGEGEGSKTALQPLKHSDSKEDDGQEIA

8H9 antigen (human) [2] = target: T1, 8H9 antigen (human); assay: 8H9 reactivity by FACS on U2OS cells
8H9 antigen (human) [3] = target: T1, 8H9 antigen (human); assay: 8H9 reactivity by FACS on BT-474 cells
8H9 antigen (human) [4] = target: T1, 8H9 antigen (human); assay: 8H9 reactivity by FACS on ZR-75-1 cells
8H9 antigen (human) [5] = target: T1, 8H9 antigen (human); assay: 8H9 reactivity by FACS on SK-N-BE(2) cells
8H9 antigen (human) [6] = target: T1, 8H9 antigen (human); assay: 8H9 reactivity by FACS on MCF-7 cells
8H9 antigen (human) [7] = target: T1, 8H9 antigen (human); assay: 8H9 reactivity by FACS on CRL1427 (MG63) cells
8H9 antigen (human) [8] = target: T1, 8H9 antigen (human); assay: reactivity with breast cancer and osteosarcoma cell lines (FACS, Table 2)
8H9 antigen (human) [9] = target: T1, 8H9 antigen (human); assay: 8H9 reactivity by FACS on NMB-7 cells
8H9 antigen (human) [10] = target: T1, 8H9 antigen (human); assay: reactivity with MCF-7 cells (FACS, Table 2)
8H9 antigen (human) [11] = target: T1, 8H9 antigen (human); assay: 8H9 reactivity by FACS on OHS-M1 cells

binding (8H9 antigen (human) [1]): binds
binding (8H9 antigen (human) [2]): binds
binding (8H9 antigen (human) [3]): binds
binding (8H9 antigen (human) [4]): binds
binding (8H9 antigen (human) [5]): binds
binding (8H9 antigen (human) [6]): binds
binding (8H9 antigen (human) [7]): binds
binding (8H9 antigen (human) [8]): binds
binding (8H9 antigen (human) [9]): binds
binding (8H9 antigen (human) [10]): binds
binding (8H9 antigen (human) [11]): binds
B1: monoclonal antibody 8H9 (antibody, V domains shown)
VH: QVQLQQSGAELVKPGASVKLSCKASGYTFTNYDINWVRQRPEQGLEWIGWIFPGDGSTQYNEKFKGKATLTTDTSSSTAYMQLSRLTSEDSAVYFCARQTTATWFAYWGQGTTVTVSS
VL: DIELTQSPTTLSVTPGDRVSLSCRASQSISDYLHWYQQKSHESPRLLIKYASQSISGIPSRFSGSGSGSDFTLSINSVEPEDVGVYYCQNGHSFPLTFGGGTKLELK
